The values below come from paper PMC6060094, “Structural determinants of the catalytic mechanism of Plasmodium CCT, a key enzyme of malaria lipid biosynthesis” (Scientific Reports, 2018).

Molecules are shown by their SMILES.

Series [1] relates to PfCCT(528–795) T761A. Kind of series: Equilibrium ligand binding by isothermal titration calorimetry (ITC). Details: species or system Plasmodium falciparum. Conditions: 20 °C, pH 7.5. As for the experimental part: (§1) Calorimetric measurements were performed on an ITC 200 titration calorimeter (Malvern) at 20 °C. The protein samples were dialyzed against 20 mM HEPES/NaOH pH 7.5, 100 mM NaCl, including 0.5 mM Tris(2-carboxyethyl)phosphine (TCEP) as reducing agent. CTP and CDPCho were diluted from a concentrated stock into the dialysis buffer with subsequent pH adjustment. Concentration of the titrating nucleotide ligands were determined using molar extinction coefficients 9000 M^−1 cm^−1 at 271 nm for CTP and 5000 M^−1 cm^−1 at 260 nm for CDPCho[16]. In the experimental setup, the cell of the instrument was filled with protein and the syringe with the ligand. The titrations typically included 19 steps of injection with 2 μl of ligand per injection spaced 180 s apart from each other, with the injection syringe rotating at 750 r.p.m. The data were analyzed using MICROCAL ORIGIN software following the directions of the manufacturer. To account for dilution, the invariant integrated heat value of the last 3–5 data points was subtracted from all data points. The one set of independent sites binding model was applied to data for determination of thermodynamic parameters: dissociation constant (Kd), stoichiometry (N), enthalpy (ΔH) and entropy (ΔS). Due to the low apparent affinity, the N value was fixed to a constant value of 1 in CTP titrations to PfCCT(528–795) K663A according to the low c value ITC data analysis protocol[40],[41]. For CTP and CDPCho titrations of PfCCT(528–795) K663A, and CTP titrations of T761A and T762A variants of PfCCT(528-795), mean and SD from two independent experiments are provided, whereas for CDPCho titrations of PfCCT(581–775) and PfCCT(528-795) mean and SD from three independent experiments are provided. For PfCCT(528-795) (Y626F/Q636A), errors of model fit to data of a single ligand binding experiment are given.

In series [2] the test system is PfCCT(528–795) T762A. The description is as above. Details: species or system Plasmodium falciparum. As to conditions: 20 °C, pH 7.5. As for the experimental part: as §1

With `Nc1ccn([C@@H]2O[C@H](COP(=O)(O)OP(=O)(O)OP(=O)(O)O)[C@@H](O)[C@H]2O)c(=O)n1` [CTP], in series [1], the ΔGCTP is -5.1 ± 0.1 kcal/mol, the ΔHCTP is -7.0 ± 0.8 kcal/mol and the “−TΔSCTP” value was 1.9 ± 1.0 kcal/mol. Moreover, in series [2], the ΔGCTP was -5.1 ± 0.1 kcal/mol, the ΔHCTP is -10.5 ± 0.7 kcal/mol and the “−TΔSCTP” value stood at 5.5 ± 0.8 kcal/mol.
